Measured values: PubChem BioAssay AID1347426 (Functional Genomics Laboratory (NCATS/FGL), 2020)
The whole screen tested about 31,000 sequences, of which about 1,400 (4.5%) were called active.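 How the source made its calls: active means median seed-adjusted z-score above 1 or below -1; inactive means the rest.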 This is one part of the list.

assay: Novel Modifiers of Survival Motor Neuron (SMN) Protein: Gene Identification via Genome-wide siRNA Screen; conditions: HEK293T SMN2-luciferase reporter, siRNA knockdown, 72 h; actives lie on both sides;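 further: luminescence tracks full-length SMN protein made from the SMN2 reporter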
Outline: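 HEK293T cells stably carrying an SMN2 promoter/splicing cassette–luciferase reporter were reverse-transfected with 1 pmol siRNA per well (druggable-genome library, 3 siRNAs per gene) and grown 72 h at 37 °C. Luminescence, normalized to negative-control siRNA and log10-transformed, was scored as MAD.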

Sequence	median seed-adjusted z-score
GACGGCCUCUAUUACCUCUTT against LTB	inactive: 0.646
CGGUCACUCUUGCCCAGAUTT against RHBDL1	inactive: -0.365
GGCGUGAGGUUUUUGACUATT against NFE2L1	inactive: 0.689
CAGUAUAUCGAUUCUCGUUTT against NCOA3	inactive: -0.594
GCAUAUCUGCUGAUGAUGATT against RDBP	inactive: 0.975
GGAGGUAUCUAACAAGAUUTT against LPO	inactive: 0.201
GGAGUUAUGCAGCUAAUUATT against SLC7A11	inactive: -0.182
GGUAUGGAUUUAACAGUCATT against DHODH	inactive: -0.422
GCACCUAUGAGUUCGGCAATT against SLC25A39	inactive: -0.111
GCACUGUAGCAUACCUGUATT against GINS1	inactive: -0.224
GCAUUGCUGCAGACAGAUUTT against PCDH20	inactive: 0.0594
CCUGGUCCGUGAUAGCAAATT against AQP7	inactive: 0.0827
CUCGGUCAGUGGACUCUUATT against ATF6	inactive: 0.26
CAGCCUUACUCAAUUUGUATT against EFS	inactive: -0.299
GGCUGCUCAUCGAAAAGUATT against PLCB3	inactive: 0
GAUUGGGCUCUAUACAUUUTT against NPY5R	inactive: 0.213
GAAUGUUCUCAACCGGAAATT against DRD1	inactive: -0.508
GAUUAUAAGUAUCUACGUUTT against GTPBP4	active: 1.01
CCGCUGCACUACAAUCUGATT against TRHDE	inactive: 0.429
CCCUUUUACUAUUCAGCGATT against PPP4R2	inactive: 0.211
GGACCAUAGGAUUACAACUTT against HOXA1	inactive: 0
CACCAGCUAUAUGAAACUATT against DCTN2	inactive: 0.339
GGAUCUUAGGGAAGCAGCATT against ATG4A	inactive: -0.288
GGCUUAAAGACAUUGAACATT against KLHL1	inactive: 0.067
UGCUGUCCGAGGAAACCUATT against MIP	inactive: 0.702
GCAUUUCUACGAUCCUGAATT against GPT2	inactive: 0.0268
GGUUGGUAAUUCUGACUGUTT against SYCP1	inactive: -0.0197

Sequence	median seed-adjusted z-score
CCGUUACUGUUGCUGCCUATT against PTPRF	inactive: 0.413
GGAUGAAGCCUCCGACUAATT against MERTK	inactive: 0.369
CAGUGGUCCUAUUUCUAAATT against SCML1	inactive: 0.575
GCACGUCACUGUGGUUGUATT against THNSL2	inactive: 0
CCUUCCCUCAGGUACUAAATT against THEX1	inactive: -0.423
ACUUUGCAAUGAAAGGAAATT against POLE3	inactive: -0.0612
AGAUGUACAAGGACCGCAUTT against CARD9	inactive: -0.325
GAAUCACGCUCGGAAACAATT against NCOR2	inactive: -0.305
GCUAUCAACUUACAGUACATT against ZNF30	inactive: -0.0208
CAAUGUUACUGAUGCGGAUTT against CASQ1	inactive: -0.0307
AGACAUCUAUUAUCUGCUUTT against FOXD2	inactive: -0.0853
CCAGGACACUCACCCAGAATT against GMPPA	inactive: 0.619
GCUAUGGUAGUGCAGAUUATT against FLG	inactive: 0.221
CAGGUUUUCUACAACAACATT against ABCA2	active: -1.18
CUCUGUGCGUCUCAACUAUTT against JUP	inactive: 0.15
GCAGUUCCUAAAUUUCCGATT against SNX9	inactive: 0.684
GUGUUAUAACAAUCGAAGATT against CAPSL	inactive: -0.168
GGAAGUUCAUUACCAGAAUTT against PLCZ1	inactive: 0
GCUAGACCGACCCACCAUATT against FKBP6	active: -1.12
GGCUUAUGCAGAUCAAGAATT against ASNA1	inactive: 0.357
GGACCGACAUUGGUGUAUATT against JARID1A	inactive: 0.189
CCUUGUCACUGCGUUCUUATT against SLC22A3	inactive: 0.126
AGAUCUAUGAGAUUGAACATT against PRKAG3	active: -1.03
ACUUCGAGCUGGACCUUAATT against PCDHAC2	inactive: -0.107
CGGUCAUUUCGUCGAGAUATT against HSF5	inactive: 0.369
GCAUACCGGUCAAGUCCUATT against ATP13A2	inactive: 0.461
GCAACACCCAGGUAGUUUUTT against EIF4A1	active: -1.05

Already shown: an excerpt of the list.
Sequence	median seed-adjusted z-score
GGUUGGUAAUUCUGACUGUTT against SYCP1	inactive: -0.0197
CCGUUACUGUUGCUGCCUATT against PTPRF	inactive: 0.413
GGAUGAAGCCUCCGACUAATT against MERTK	inactive: 0.369
